Measurements reported in the supplement of paper PMC4604168 (melanoma cell lines).
Some of the results follow. Single values are uncertain, as repeats are few or missing.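 Cells were imaged in 1,536-well plates, and nuclei stained with an antibody against cleaved PARP were counted against all DNA-stained nuclei to give the apoptosis fraction. Screening doses were chosen to leave most cells alive, and resting and induced cleaved-PARP levels differ strongly between cell lines.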

Legend:
Test in all cases: cleaved PARP positive nuclei fraction relative to DMSO control; melanoma cells; higher = more apoptosis
Conditions in all cases: library dose: low library concentration; 72 h
501Mel = test system: 501Mel
A101D = test system: A101D
A2058 = test system: A2058
A375 = test system: A375
C32 = test system: C32
CBRC008 = test system: CBRC008 (line from a melanoma biopsy)
CBRC014 = test system: CBRC014 (line from a melanoma biopsy)
CBRC016 = test system: CBRC016 (line from a melanoma biopsy)
CBRC017 = test system: CBRC017 (line from a melanoma biopsy)
CBRC034 = test system: CBRC034 (line from a melanoma biopsy)
COLO792 = test system: COLO792
COLO800 = test system: COLO800
COLO829 = test system: COLO829
G361 = test system: G361
IPC-298 = test system: IPC-298
IST-MEL1 = test system: IST-MEL1
LB2518-MEL = test system: LB2518-MEL
LOXIMVI = test system: LOXIMVI
MEL-HO = test system: MEL-HO

| SMILES | cleaved PARP positive nuclei fraction (501Mel) [%] | cleaved PARP positive nuclei fraction (A101D) [%] | cleaved PARP positive nuclei fraction (A2058) [%] | cleaved PARP positive nuclei fraction (A375) [%] | cleaved PARP positive nuclei fraction (C32) [%] | cleaved PARP positive nuclei fraction (CBRC008) [%] | cleaved PARP positive nuclei fraction (CBRC014) [%] | cleaved PARP positive nuclei fraction (CBRC016) [%] | cleaved PARP positive nuclei fraction (CBRC017) [%] | cleaved PARP positive nuclei fraction (CBRC034) [%] | cleaved PARP positive nuclei fraction (COLO792) [%] | cleaved PARP positive nuclei fraction (COLO800) [%] | cleaved PARP positive nuclei fraction (COLO829) [%] | cleaved PARP positive nuclei fraction (G361) [%] | cleaved PARP positive nuclei fraction (IPC-298) [%] | cleaved PARP positive nuclei fraction (IST-MEL1) [%] | cleaved PARP positive nuclei fraction (LB2518-MEL) [%] | cleaved PARP positive nuclei fraction (LOXIMVI) [%] | cleaved PARP positive nuclei fraction (MEL-HO) [%] |
| --- | --- | --- | --- | --- | --- | --- | --- | --- | --- | --- | --- | --- | --- | --- | --- | --- | --- | --- | --- |
| CC1(C)CCC(c2ccc(Cl)cc2)=C(CN2CCN(c3ccc(C(=O)NS(=O)(=O)c4ccc(N[C@H](CCN5CCOCC5)CSc5ccccc5)c(S(=O)(=O)C(F)(F)F)c4)cc3)CC2)C1 + O=C(O)c1ccc2c(c1)nc(Nc1cccc(Cl)c1)c1ccncc12 [CX4945] (first compound 0.4 µM, partner dose 0.4 µM) | 162 | 466 | 360 | 281 | 190 | 339 | 1600 | 1500 | 476 | 547 | 381 | 58.1 | 221 | 283 | 62.5 | 155 | 423 | 322 | 241 |
| C[C@@H](N)c1ccc(C(=O)Nc2ccnc3[nH]ccc23)cc1 + CC(=O)c1c(C)c2cnc(Nc3ccc(N4CCNCC4)cn3)nc2n(C2CCCC2)c1=O [palbociclib] (first compound 0.4 µM, partner dose 0.04 µM) | 103 | 89.3 | 202 | 144 | 135 | 51.1 | 167 | 125 | 147 | 59.2 | 265 | 96.8 | 138 | 120 | 90.6 | 68.8 | 122 | 59.2 | 280 |
| C[C@]1(O)C[C@@H](c2nc(-c3ccc4ccc(-c5ccccc5)nc4c3)c3c(N)nccn32)C1 + C[C@]1(c2nc3c(C(N)=O)cccc3[nH]2)CCCN1 [Veliparib] (first compound 0.4 µM, partner dose 1.4 µM) | 134 | 48.9 | 77.6 | 210 | 93.8 | 51.2 | 100 | 36 | 85.5 | 75.8 | 87.8 | 130 | 116 | 110 | 44 | 171 | 118 | 128 | 73.8 |
| COc1ccc(C2=N[C@@H](c3ccc(Cl)cc3)[C@@H](c3ccc(Cl)cc3)N2C(=O)N2CCNC(=O)C2)c(OC(C)C)c1 [Nutlin-3] + C[C@@H](Oc1cc(-c2cnn(C3CCNCC3)c2)cnc1N)c1c(Cl)ccc(F)c1Cl [Crizotinib] (first compound 0.1 µM, partner dose 0.2 µM) | 195 | 279 | 99.5 | 116 | 28.4 | 161 | 82.1 | 96.2 | 88.9 | 83.1 | 80.6 | 95.3 | 103 | 94.6 | 40.4 | 90.9 | 113 | 80.9 | 153 |
| Cn1sc(=O)n(Cc2ccccc2)c1=O + C#Cc1cccc(Nc2ncnc3cc(OCCOC)c(OCCOC)cc23)c1 [erlotinib] (first compound 0.4 µM, partner dose 0.8 µM) | 64.6 | 89.4 | 57.8 | 344 | 186 | 88.9 | 86.9 | 65.8 | 72.9 | 128 | 162 | 136 | 191 | 172 | 120 | 41.2 | 110 | 79.6 | 74.9 |
| CS(=O)(=O)c1ccc(C(=O)Nc2ccc(Cl)c(-c3ccccn3)c2)c(Cl)c1 [vismodegib] + CS(=O)(=O)CCNCc1ccc(-c2ccc3ncnc(Nc4ccc(OCc5cccc(F)c5)c(Cl)c4)c3c2)o1 [lapatinib] (first compound 1 µM, partner dose 0.8 µM) | 99.3 | 90.3 | 156 | 145 | 136 | 275 | 115 | 49.9 | 114 | 63.5 | 41.3 | 102 | 116 | 139 | 115 | 42.6 | 118 | 106 | 43.4 |
| Cn1sc(=O)n(Cc2ccccc2)c1=O + C[C@@H](Oc1cc(-c2cnn(C3CCNCC3)c2)cnc1N)c1c(Cl)ccc(F)c1Cl [Crizotinib] (first compound 0.4 µM, partner dose 0.2 µM) | 73.7 | 177 | 82.5 | 38.8 | 153 | 39.6 | 93.9 | 47.3 | 122 | 70.8 | 143 | 107 | 112 | 97.2 | 126 | 160 | 237 | 210 | 157 |
| C[C@]1(O)C[C@@H](c2nc(-c3ccc4ccc(-c5ccccc5)nc4c3)c3c(N)nccn32)C1 + Cn1c(Nc2ccc(C(F)(F)F)cc2)nc2cc(Oc3ccnc(-c4ncc(C(F)(F)F)[nH]4)c3)ccc21 [CHIR265] (first compound 0.4 µM, partner dose 0.08 µM) | 180 | 153 | 111 | 1730 | 86.1 | 310 | 155 | 159 | 128 | 201 | 258 | 124 | 127 | 360 | 82 | 31.8 | 448 | 95.5 | 197 |
| C[C@@H](N)c1ccc(C(=O)Nc2ccnc3[nH]ccc23)cc1 + CO[C@H]1C[C@@H]2CC[C@@H](C)[C@@](O)(O2)C(=O)C(=O)N2CCCC[C@H]2C(=O)O[C@H]([C@H](C)C[C@@H]2CC[C@@H](OCCO)[C@H](OC)C2)CC(=O)[C@H](C)/C=C(\C)[C@@H](O)[C@@H](OC)C(=O)[C@H](C)C[C@H](C)/C=C/C=C/C=C/1C [everolimus] (first compound 0.4 µM, partner dose 0.02 µM) | 467 | 138 | 124 | 914 | 78.7 | 95.5 | 136 | 138 | 179 | 75.7 | 330 | 119 | 180 | 308 | 115 | 106 | 245 | 193 | 179 |
| Cn1cnc2c(F)c(Nc3ccc(Br)cc3Cl)c(C(=O)NOCCO)cc21 [selumetinib] + Cn1sc(=O)n(Cc2ccccc2)c1=O [TDZD-8] (first compound 0.015 µM, partner dose 0.4 µM) | 1370 | 106 | 223 | 62 | 219 | 177 | 88.8 | 103 | 128 | 110 | 112 | 294 | 39.6 | 110 | 178 | 83.2 | 173 | 191 | 92.5 |
| Cn1sc(=O)n(Cc2ccccc2)c1=O + CS(=O)(=O)CCNCc1ccc(-c2ccc3ncnc(Nc4ccc(OCc5cccc(F)c5)c(Cl)c4)c3c2)o1 [lapatinib] (first compound 0.4 µM, partner dose 0.8 µM) | 76.2 | 94 | 200 | 158 | 83.9 | 114 | 102 | 75.7 | 112 | 114 | 105 | 110 | 85.9 | 94.1 | 84.1 | 174 | 104 | 233 | 92.7 |
| Cn1sc(=O)n(Cc2ccccc2)c1=O + Nc1nc(F)nc2c1ncn2[C@@H]1O[C@H](CO)[C@@H](O)[C@@H]1O [fludarabine] (first compound 0.4 µM, partner dose 0.2 µM) | 12700 | 59.2 | 245 | 5350 | 88.5 | 27.7 | 85.7 | 60.6 | 119 | 97.1 | 42.4 | 152 | 155 | 105 | 82.3 | 67.7 | 53.7 | 192 | 122 |
| Cn1sc(=O)n(Cc2ccccc2)c1=O + CN1CCN(c2ccc3nc(-c4c(N)c5c(F)cccc5[nH]c4=O)[nH]c3c2)CC1 [Dovitinib] (first compound 0.4 µM, partner dose 0.1 µM) | 150 | 120 | 76 | 227 | 143 | 52.5 | 69.7 | 75.2 | 90.3 | 71.1 | 75.6 | 86.3 | 104 | 89.4 | 109 | 153 | 24.7 | 36.9 | 65.8 |
| CC(=O)O[C@@]12CO[C@@H]1C[C@H](O)[C@@]1(C)C(=O)[C@H](O)C3=C(C)[C@@H](OC(=O)[C@H](O)[C@@H](NC(=O)OC(C)(C)C)c4ccccc4)C[C@@](O)([C@@H](OC(=O)c4ccccc4)[C@H]21)C3(C)C [Docetaxel] + CS(=O)(=O)CCNCc1ccc(-c2ccc3ncnc(Nc4ccc(OCc5cccc(F)c5)c(Cl)c4)c3c2)o1 [lapatinib] (first compound 0.0001 µM, partner dose 0.8 µM) | 209 | 59.8 | 2850 | 3500 | – | 351 | 296 | 292 | 159 | 119 | 541 | 616 | 211 | 564 | 318 | 111 | 447 | 112 | 176 |
| Cn1sc(=O)n(Cc2ccccc2)c1=O + CC(=O)c1c(C)c2cnc(Nc3ccc(N4CCNCC4)cn3)nc2n(C2CCCC2)c1=O [palbociclib] (first compound 0.4 µM, partner dose 0.04 µM) | 135 | 166 | 137 | 81 | 81.4 | 49 | 114 | 73.7 | 114 | 77.3 | 111 | 42.8 | 126 | 78.8 | 46 | 89.4 | 129 | 160 | 71.8 |
| COc1ccc(C2=N[C@@H](c3ccc(Cl)cc3)[C@@H](c3ccc(Cl)cc3)N2C(=O)N2CCNC(=O)C2)c(OC(C)C)c1 [Nutlin-3] + Nc1cccc2c1CN(C1CCC(=O)NC1=O)C2=O [lenalidomide] (first compound 0.1 µM, partner dose 1 µM) | 131 | 287 | 70.3 | 85.3 | 171 | 117 | 95 | 121 | 139 | 152 | 94.4 | 143 | 86.9 | 147 | 41.2 | 97.9 | 119 | 83.1 | 117 |

Taken from above:
CC(=O)O[C@@]12CO[C@@H]1C[C@H](O)[C@@]1(C)C(=O)[C@H](O)C3=C(C)[C@@H](OC(=O)[C@H](O)[C@@H](NC(=O)OC(C)(C)C)c4ccccc4)C[C@@](O)([C@@H](OC(=O)c4ccccc4)[C@H]21)C3(C)C [Docetaxel] + CS(=O)(=O)CCNCc1ccc(-c2ccc3ncnc(Nc4ccc(OCc5cccc(F)c5)c(Cl)c4)c3c2)o1 [lapatinib] (first compound 0.0001 µM, partner dose 0.8 µM) – cleaved PARP positive nuclei fraction (G361) [%]: 564
CS(=O)(=O)c1ccc(C(=O)Nc2ccc(Cl)c(-c3ccccn3)c2)c(Cl)c1 [vismodegib] + CS(=O)(=O)CCNCc1ccc(-c2ccc3ncnc(Nc4ccc(OCc5cccc(F)c5)c(Cl)c4)c3c2)o1 [lapatinib] (first compound 1 µM, partner dose 0.8 µM) – cleaved PARP positive nuclei fraction (CBRC008) [%]: 275
